Experimental data as given in patent US10039771B2, “Method for cancer cell reprogramming” (STC.UNM, priority 2013, dated 2018).
At least one structure is not confirmed: it was looked up by name or label, or the drawing left a doubt.

Assays:
U937 cells [1] = assay: Propidium iodide cell cycle assay; settings: 24 hour incubation, dose response
U937 cells [2] = assay: CellTrace CFSE cell proliferation assay; settings: 3 μM, 48 hr

Compound | Effect on cell cycle (PI staining) (U937 cells [1]) | Effect on cell division (CFSE fluorescence) (U937 cells [2])
C[C@H]1COC2=C1C(=O)C(=O)c1c2ccc2c1CCCC2(C)C [Cryptotanshinone, cryptotanshinone] | increased percentages of cells in G1 or apoptosis in a dose-dependent manner | –
C[C@H]1[C@@H](O)O[C@@H]2O[C@@]3(C)CC[C@H]4[C@H](C)CC[C@@H]1[C@@]24OO3 [Dihydroartemisinin, dihydroartemisinin] | increased percentages of cells in G1 or apoptosis in a dose-dependent manner | arrest of cell division within 48 hr
